Experimental data published in patent publication US4822774A (Eisai Co., Ltd., priority 1986, dated 1989).
Strings that start with PEPTIDE1 are HELM notation: dots part the residues, brackets hold end groups and non-standard residues.

Experiment: general procedure: Boc solid-phase peptide synthesis; Boc-Lys(Cl-Z)-O-Resin (0.4 m mole/g, Peninsula Labs.)
Conditions: whole synthesis; for isolated yield: calculated from coupling with Asn, scale of the general procedure 1.25 g resin

Substance | crude mass [mg] | isolated yield [%]
PEPTIDE1{H.S.D.A.V.F.T.D.N.Y.T.R.L.R.K.Q.M.A.V.K.K.Y.L.N.S.I.L.N.G.K}$$$$V2.0 | 834 | 24.3
PEPTIDE1{H.S.D.A.V.F.T.D.N.Y.T.R.L.R.K.Q.L.A.V.K.K.Y.L.N.S.I.L.N.G.K}$$$$V2.0 | 628 | 8.5
